Reference: PubChem BioAssay AID1347423 (Functional Genomics Laboratory (NCATS/FGL), 2020)
Out of some 52,000 sequences screened, about 210 (0.4%) were called active.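 Rule for the calls: active = gene whose silencing raises cell survival under the drug, median off-target-corrected z-score across its silencing RNAs 2 or more; inactive = the rest.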 Some of the results follow.

Assay: Resistance to Poly (ADP-Ribose) Polymerase inhibitor: Gene Identification via Genome-wide siRNA Screen
Details: mouse BRCA2 R2336H ES cells, olaparib, CellTiter-Glo viability; active compounds read high
Method in brief: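 Genome-wide siRNA screen (3 siRNAs/gene, 20 nM) in mouse ES cells carrying hypomorphic BRCA2 R2336H; olaparib 500 nM added 48 h post-transfection, CellTiter-Glo viability 72 h later. Normalized to plate-median negative control; MAD z-scores, gene median, seed-adjusted.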

Sequence | z-score
GGAACAUGUAGAAGGUCCATT against Slc9a3r2 | inactive: 0.965
GGAUUUCUUCUUUAUCAAGTT against 4933403H06Rik | inactive: 0.967
GGAGGAAAGAAAAGAUCCATT against Tie1 | inactive: 0.484
CCAAUUCCCAAAAUUAGCCTT against A930026L03Rik | inactive: 1.23
GGACAUUCCUGUUGAUAAUTT against Kcnj8 | inactive: -0.552
CGUGAACAUUGACCCAGAATT against Clm3 | inactive: -1.2
GGCAAACCAGUGUUCCCUATT against 1810009M01Rik | inactive: -0.229
GGGCAUUUUGAUGCUUACGTT against 1700034I23Rik | inactive: -0.368
GGCUUCGACUGUUGAGAUUTT against 2-Sep | inactive: 1.23
GGAAUCCUUCACUGAUGAATT against Pilrb | inactive: -0.768
GGGACUUUCAUAAUGCCAGTT against Snip1 | inactive: 0.733
GGAGGAAGAGGAGAAUCUATT against Supt6h | inactive: -2.46
GGAGCCCAGGAAGAUGACATT against Cyp2c54 | inactive: -0.806
GCUGAUAAGGAGGUACCAUTT against Igf2r | inactive: 0.147
GGACACAACAAGAAAUUCUTT against Suclg1 | inactive: -0.812
GGCAUUAGCUACCUGGACATT against 1700013G24Rik | inactive: 0.995
GGAGAAAACCUAGAAAUUUTT against Galnt1 | inactive: 1.07
GUCUACCUUGUUUAUGACCTT against 2410015M20Rik | inactive: -0.502
GCGAAUCGCACAGGAUCUUTT against Hps4 | inactive: -1.74
GAACUCAAAGAAUAAAUCCTT against Ms4a6d | inactive: 0.877
GCCUACACCAGUCCUUUGATT against 1300006M19Rik | inactive: -0.984
GCAAGCUUCAAGAAGUAAGTT against Cenph | inactive: -0.148
GCAAGCACGGAGAACCAAUTT against D5Wsu178e | inactive: -2.03
GGAAGGCCGAGAAGAAUUCTT against Myst1 | inactive: 0.387
CGUGAUCAAAACUCACAUGTT against BC010801 | inactive: -0.578
GGUUUAUGGAGCAAGUGAUTT against Actr3 | inactive: -1.76

Pulled one by one from the list above (five):
Sequence | z-score
GGAAGGCCGAGAAGAAUUCTT against Myst1 | inactive: 0.387
GCAAGCACGGAGAACCAAUTT against D5Wsu178e | inactive: -2.03
GGACAUUCCUGUUGAUAAUTT against Kcnj8 | inactive: -0.552
GGCAUUAGCUACCUGGACATT against 1700013G24Rik | inactive: 0.995
GCCUACACCAGUCCUUUGATT against 1300006M19Rik | inactive: -0.984

More entries follow.

Sequence | z-score
GGUCGUAUGGUGCUCAAGATT against Pira1 | inactive: -1.25
GGGAAGAGAAUGAUUAAAUTT against 9630048M01Rik | inactive: 0.339
GGAAGAAUGUGGAGGCUAUTT against Tnni1 | inactive: -0.564
GGAGAAGUAGAUGUAUAUGTT against Prkar1b | inactive: -0.118
GCUCUUUUAAUAUCACUGCTT against Heyl | inactive: -0.217
GGUCUGUGCAAGCAAAUCGTT against Cacng2 | inactive: -0.21
CGACUUCAUAAGGUAUGCATT against Tnfrsf22 | inactive: 0.676
GGAACAGUUCAAGUGAAGCTT against Sertad2 | inactive: -0.407
ACUGGAUACUCCACUCAACTT against Olfr46 | inactive: 0.172
GGAUUUGGCAAAAUCUUCCTT against 2810441O16Rik | inactive: 0.329
GGGAGAGUGGAUCAUCAAUTT against P2ry10 | inactive: 1.94
GGUUAAGGAUGCUCAAGUATT against Krt20 | inactive: 1.02
GGGCGGUAAAGAUUUCCUUTT against Scn3b | inactive: 1.4
GGAAAUAGAUCCUUUUUGATT against 2510039O18Rik | inactive: -0.247
CCGCAUGUAUCAUAUCAAATT against Dhx37 | inactive: -1.16
CCGUACCUACAAGUUCACUTT against MGC58365 | inactive: 0.0574
GGCUAGAUCCAAUGCUUCUTT against Dlgap1 | inactive: -0.697
GGUGCACUUUGAAUCAGGGTT against Uchl4 | inactive: -0.391
GGCUUCAAAACAUUUUCAGTT against 1110028C15Rik | inactive: 0.588
GGAGUGUAUUAAGAUUUCUTT against AA407526 | inactive: -0.323
GGUGAGAAUUUGAGAAAGATT against Dgka | inactive: -1.14
GGAGGAAAAGGAAAGAGAATT against Fgd1 | inactive: -1.32
GCUAUACCAGGAGGUAGAUTT against E130112L23Rik | inactive: 1.56
GGGUAGUUGUUACUGUUGUTT against Sprr2f | inactive: -0.12
GGCUGCUUAGCUUUAAUGGTT against Gm1568 | inactive: 0.354
GGGUUCACCUUGACAUCCATT against 2400003B06Rik | inactive: 1.95

Sequence | z-score
GGACACAAUUAUGAGAACATT against C130090K23Rik | inactive: -1.31
GCCUCAUAAAUAACGUGAATT against Nts | inactive: 0.51
GGUUAACACCUUCAUGUCCTT against Ntsr1 | inactive: 0.0199
GGAAGCCUUUCAGAAGACCTT against Akr1b8 | inactive: 0.0699
GCGAUUAAGAGCACUUGACTT against Aoc2 | inactive: 0.0892
GCUUCACCAGAGAUGGAAUTT against Slfn3 | inactive: 1.25
GCAAACAGCUAGUAAAAUGTT against Pscd3 | inactive: -0.86
GCUGGGAAGACGUAUGAGGTT against Snx9 | inactive: 0.173
GCUGAUGCUCUUAAGCUAUTT against 4930563C04Rik | inactive: -1.11
GGAAUGAGUUUCACAGUUUTT against Fech | inactive: -1.3
CCAGUCAGUCAAUUAGACUTT against Pja1 | inactive: 0.445
GGACUCCACUCCAAAUACATT against Tnfsf8 | inactive: -0.133
GGAAGUUCAACACCUCCAGTT against BC023296 | inactive: -0.673
GCCUUUGUAGGUUCAAGUGTT against 2310001H12Rik | inactive: 1.78
GGCUUACAAUGUGAUUUACTT against Cd7 | inactive: 1.71
GGGACCACUCCUUCAUCACTT against A630001G21Rik | inactive: -0.163
GCCUCACUUUGCCAUGCAUTT against Pou4f1 | inactive: -0.33
GGAAUAUGGAAAGACCUUUTT against 6330581L23Rik | inactive: -0.228
GGUAAUGAAGGAACUGGAUTT against S100a1 | inactive: 0.603
GGGUUUUUACAUUCAGAAGTT against Trib2 | inactive: 0.293
CCAAAGCUAAAACGGGUGGTT against 2700055K07Rik | inactive: -1.32
CCUCACCGAGUGGUUUAGCTT against BC034204 | inactive: -0.879
GGGUGACAGGUUGAUCUCATT against Tcn2 | inactive: -1.86
CGCUAUGAAACCUCACUAATT against E2f1 | inactive: 0.197
GUACUGAUACUAGGCUCCUTT against Olfr1387 | inactive: -0.701
GGUUCAUAAAGACAAACCUTT against V1re13 | inactive: 0.0117

Sequence | z-score
CGAGCAGAGUUUUUGAAUATT against Cald1 | inactive: 0.134
GCACCUGAGCUUUCGAAUATT against 1810037C20Rik | inactive: 0.135
GGGAUACUCCAGACAAGGUTT against Dub2a | inactive: 1.11
GCAAAUUAAGCACUGUAAGTT against BC042698 | inactive: -0.341
GCUGUUAGCCUUAAAGUCATT against Hibch | inactive: 1.06
GUCCUAGAGGAUCUGGAUGTT against V1rh10 | inactive: -1.19
GCAGUAACCGUGACCAGAUTT against Slc35a5 | inactive: -1.08
GCAGUGAUCCAUGAGCCUATT against Eif5a | inactive: -0.0804
GCAAUUAGUCCCUAUUUACTT against Vps41 | inactive: 0.633
CCUUGUACACGGAUUGAAUTT against Itga6 | active: 2.44
GCAUCUACAAAUGUUUCAGTT against D730019B10Rik | inactive: 0.543
GGUUAAGGAAAUAUUGUGATT against 1200011I18Rik | inactive: 0.0353
GCUGAGGGUUGAUUAGUGGTT against H2-Bl | inactive: -1.2
GGAUAGAAUGGACUUUGAATT against Ulk2 | inactive: -0.163
GGAGAAUAAGCAAAUCCUUTT against 4930452B06Rik | inactive: 0.895
GCCCAAUGUCUCAGAUUAUTT against Dgkg | inactive: -0.212
GGAAUCAGUCGCAUCACUUTT against E130012K09 | inactive: -1.57
CCUUUCACUAGCUAAGUGATT against 4632423N09Rik | inactive: 0.558
GGAGAUUUAUUAAACUGGATT against Ell2 | inactive: -0.896
GGAAGUCGAGGUAUACACUTT against Pax2 | inactive: 0.798
GUGGCCAAAACAACAUGCATT against Olfr1348 | inactive: 0.822
GGACAUUGACCUGUUCGGCTT against Eef1d | inactive: -1.11
CCAUUACUCGCAUCUGGGATT against Tcfap2c | inactive: 2.28
GCCGAAUAUUAAAUGGUUUTT against BC003262 | inactive: 1.77
GGAUGUCAGAUUUGUCAGCTT against Trpm7 | inactive: -0.312
